Assay results: paper doi:10.1101/2021.06.15.448480
Substitutions are numbered along the chain they refer to. Names and notes keep the numbering of the source. Results are given in words; binding and its absence hold for the method and conditions named. Binding seen in cells or lysates may run through a third protein. Some entries that bind do so weakly or less than the wild type. For some assays here: Sequences can lack the tags named with a protein. Blank lines part the entries; values can stand above or below the molecule they belong to.

Chains of the proteins cited; added tags and fusions are not shown. Lines headed by an entry give the natural chain unless they say otherwise; changes in a name come on top.
UniProt Q07065, whole entry: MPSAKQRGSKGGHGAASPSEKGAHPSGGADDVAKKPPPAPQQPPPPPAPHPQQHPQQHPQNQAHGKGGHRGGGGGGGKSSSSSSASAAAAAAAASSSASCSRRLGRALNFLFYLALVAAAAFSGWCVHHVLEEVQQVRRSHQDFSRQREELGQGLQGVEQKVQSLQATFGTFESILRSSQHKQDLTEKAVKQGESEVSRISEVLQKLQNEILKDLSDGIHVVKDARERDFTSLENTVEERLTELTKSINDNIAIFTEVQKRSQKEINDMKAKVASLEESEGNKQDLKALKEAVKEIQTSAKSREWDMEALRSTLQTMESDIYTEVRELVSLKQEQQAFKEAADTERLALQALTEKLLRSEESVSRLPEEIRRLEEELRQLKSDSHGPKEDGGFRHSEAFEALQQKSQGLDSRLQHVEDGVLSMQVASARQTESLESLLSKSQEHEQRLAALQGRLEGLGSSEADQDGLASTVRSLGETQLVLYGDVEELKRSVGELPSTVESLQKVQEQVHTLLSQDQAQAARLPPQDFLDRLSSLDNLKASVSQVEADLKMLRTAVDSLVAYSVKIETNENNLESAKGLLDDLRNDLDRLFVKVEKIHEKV

Key:
Test in all cases: co-IP
RHBDL4 HA = target: T1, RHBDL4 HA (UniProt Q8TEB9)
T1 sequence: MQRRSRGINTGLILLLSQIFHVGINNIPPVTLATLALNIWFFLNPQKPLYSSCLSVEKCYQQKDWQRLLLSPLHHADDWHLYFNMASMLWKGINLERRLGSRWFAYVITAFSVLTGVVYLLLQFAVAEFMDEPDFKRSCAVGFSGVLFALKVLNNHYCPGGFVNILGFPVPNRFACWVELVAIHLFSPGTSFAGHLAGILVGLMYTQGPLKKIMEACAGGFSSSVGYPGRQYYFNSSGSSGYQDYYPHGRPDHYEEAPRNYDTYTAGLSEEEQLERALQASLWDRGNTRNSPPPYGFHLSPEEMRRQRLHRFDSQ

RHBDL4 (endogenous) = target: T2, RHBDL4 (endogenous) (UniProt Q8TEB9)
T2 sequence: T1 sequence

CLIMP-63 HA = CLIMP-63 HA (UniProt Q07065)
CLIMP-63 Myc = CLIMP-63 Myc (UniProt Q07065)

Molecule: CLIMP-63 Myc (from UniProt Q07065 1-602)
binding (RHBDL4 HA): binds

B1: RHBDL4 Myc (enzyme, UniProt Q8TEB9 1-315)
chain: T1 sequence
binding (CLIMP-63 HA): binds

B2: RHBDL4 HA (enzyme, UniProt Q8TEB9 1-315)
chain: T1 sequence
binding (CLIMP-63 Myc): binds

The next lines start with the values.

binding (RHBDL4 (endogenous)): binds
Molecule: CLIMP-63 (endogenous) (from UniProt Q07065 1-602)

binding (CLIMP-63 Myc): binds
B3: RHBDL4 S144A (enzyme, UniProt Q8TEB9 1-315)
chain: T1 sequence with S144A
